Hit rate of the full screen: of about 220,000 compounds, about 770 (0.35%) were called active. The inconclusive results got no clear call from the source; some entries with a clear call stand among them for comparison. Cut-off read from the data, not from the text of the source: active = binding response below about 49% or above about 150%; inconclusive = no clear call, values can overlap the other calls; inactive = in between.
Target: Guanine nucleotide-binding protein G(o) subunit alpha (Homo sapiens) (UniProt P09471)
Assay: RGS7-Galphao binding modulators, primary screen, biochemical, multiplexed bead flow cytometry (AID 1439);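 note: fluorescent Galphao held in activated GDP-AlF4 state binding bead-coupled RGS7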
Settings: at 10 µM, actives lie on both sides

Sequences of proteins named here, by UniProt entry; tags and fusion partners are left off.
UniProt P09471, whole entry, looked up: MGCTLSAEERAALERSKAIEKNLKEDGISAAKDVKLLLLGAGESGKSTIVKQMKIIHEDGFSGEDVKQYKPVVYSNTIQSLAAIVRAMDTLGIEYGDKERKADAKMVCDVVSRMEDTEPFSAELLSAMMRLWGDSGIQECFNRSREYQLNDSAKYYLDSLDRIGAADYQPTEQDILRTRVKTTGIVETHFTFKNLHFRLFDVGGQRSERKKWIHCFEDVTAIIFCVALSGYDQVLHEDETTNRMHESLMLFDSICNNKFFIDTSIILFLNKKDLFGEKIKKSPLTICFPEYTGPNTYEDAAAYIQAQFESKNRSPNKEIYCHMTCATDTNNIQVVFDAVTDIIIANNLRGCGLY

Row | Structure (SMILES) | binding response (% of control)
1 | O=C(CNC(=O)c1ccc(Cl)cc1)N/N=C/c1cccnc1 | inconclusive: 107%
2 | COc1ccc(N2C(=O)C3C(c4ccc(C(=O)O)cc4)NC(Cc4ccccc4)(C(=O)O)C3C2=O)c([N+](=O)[O-])c1 (stereo not given) | inconclusive: 111%
3 | COc1cccc(/C=N/NC(=S)NCc2ccco2)c1OC | inconclusive: 95.6%
4 | COc1ccc(CNc2nc(NCc3ccc(OC)cc3)n(C(=O)c3ccccc3[N+](=O)[O-])n2)cc1 | inactive: 99.4%
5 | CC(=O)C1=C(C)N(Cc2ccccc2)C(=O)N[C@H]1c1ccco1 | inconclusive: 81.2%
6 | OC1CCN(Cc2cccc3ccccc23)CC1 | inconclusive: 104%
7 | CCN(CC)c1ccc(/C=N/NC(=O)c2cnccn2)c(O)c1 | inconclusive: -141%
8 | CC(C)Cn1c([N+](=O)[O-])nc2c1c(=O)[nH]c(=O)n2C | inconclusive: 93.8%
9 | CN(C(=O)COC(=O)c1ccc2c(=O)n3c(nc2c1)CCC3)C1CCS(=O)(=O)C1 (stereo not given) | inconclusive: 79.7%
10 | CCn1c(SCC(=O)Nc2ccccc2OC)nc(O)cc1=O | inconclusive: 82.7%
11 | O=C(Cn1cc(C(F)(F)F)cc(Cl)c1=O)NCCc1ccc(Cl)cc1Cl | inconclusive: 95.5%
12 | CCOC(=O)c1cc(-c2ccc(OC)cc2)nn1-c1ccccc1C(=O)O | inconclusive: 91.6%
13 | N#C/C(=C\c1sc(N2CCOCC2)nc1-c1ccccc1)C(=O)Nc1cccc2ccccc12 | active: 417% [activator]
14 | O=C(/C=C/c1ccc2c(c1)OCCO2)c1ccc(O)cc1 | inconclusive: 118%
15 | COc1ccccc1NC(=O)COc1ccc(Br)cc1CNC1CCCC1 | inconclusive: 99.7%
16 | c1ccc(COC(CN2CCCCCC2)CN2CCCCCC2)cc1 | inconclusive: 109%
17 | O=C(Nc1ccccc1)Nc1cccc2ccccc12 | inconclusive: 386%
18 | CCN1C(=O)S/C(=C/c2ccsc2)C1=O | inactive: 106%
19 | Cc1onc(-c2c(Cl)cccc2Cl)c1C(=O)NNC(=O)c1c(-c2c(Cl)cccc2Cl)noc1C | inconclusive: 109%
20 | O=C(O)c1ccccc1C(=O)NCC(O)c1ccccc1 (stereo not given) | inconclusive: 103%
21 | COc1ccc([N+](=O)[O-])c(OC)c1C(=O)Nc1ccc(F)cc1F | inconclusive: 118%
22 | CN1CCN(S(=O)(=O)Cc2ccc(Cl)cc2)CC1 | inconclusive: 169%
23 | NS(=O)(=O)c1ccc(CCNC(=O)c2cccc(OC(F)F)c2)cc1 | inactive: 97.7%

Row | Structure (SMILES) | binding response (% of control)
24 | COC(=O)[C@H](Cc1ccccc1)NC(=O)N1CCN(c2ccc(F)cc2)CC1 | inconclusive: 106%
25 | O=C(NCc1ccccc1F)Nc1ccc([N+](=O)[O-])cc1 | inactive: 96.8%
26 | Cc1ccc(N(CC(O)CN2CCCCC2)S(=O)(=O)c2ccccc2[N+](=O)[O-])cc1 (stereo not given) | inactive: 103%
27 | CC(C)c1nc(Cl)c(C#N)c2c1CCC2 | inconclusive: 134%
28 | O=C(O)c1cccc(NS(=O)(=O)c2ccc3c(c2)OCCCO3)c1 | inconclusive: 97.4%
29 | O=C(Nc1cc(Cl)cc(Cl)c1)C(NCCCO)c1ccccc1 (stereo not given) | inconclusive: 112%
30 | O=C(CSc1nc2ccc(Cl)cc2[nH]1)NCCc1ccccc1 | inactive: 100%
31 | O=[N+]([O-])/C(C=Nc1ccccc1O)=C\Nc1ccccc1O | inconclusive: 81.2%
32 | CN1C(=O)C(CC(=O)Nc2ccc(Cl)cc2)N(Cc2ccco2)C1=S (stereo not given) | inconclusive: 89%
33 | CC(C)(C)c1ccc(C(=O)NNC(=O)c2cccc(Br)c2)cc1 | inactive: 146%
34 | O=C(CN1CCN(Cc2ccccc2)CC1)N/N=C/c1ccco1 | inconclusive: 106%
35 | Cc1cc(NC(=O)CSc2nc3c(c(=O)n2-c2ccc(Br)cc2)SCC3)no1 | inactive: 92.5%
36 | Cc1[nH]nc2c1C(c1ccsc1)C1=C(CC(C)(C)CC1=O)N2 (stereo not given) | inactive: 119%
37 | CCN(CC)C(=S)Nc1ccc(Cl)c(Cl)c1 | inactive: 98.8%
38 | CC1(C)CC(=O)C2=C(C1)N=C1SCCC(=O)N1C2c1cccc([N+](=O)[O-])c1 (stereo not given) | inconclusive: 59.9%
39 | O=C(Nc1ccc(Cl)c(Cl)c1)OCCNC(=O)c1ccncc1 | inconclusive: 95.2%
40 | CCOc1ccc2nc3c(cc2c1)CN(CCCO)C(=NCCOC)S3 | active: -5.51%
41 | O=C(N/N=C\c1cc(Br)c(Br)o1)C1COc2ccccc2O1 (stereo not given) | inconclusive: 112%
42 | Cc1cccc(N2C(=O)c3ccc(C(=O)Nc4c[nH]c(=O)[nH]c4=O)cc3C2=O)c1 | inconclusive: 96.7%
43 | Nc1cc(-c2ccc(OC(F)(F)F)cc2)nn1-c1ccc(Cl)c(Cl)c1 | inconclusive: 109%
44 | COc1ccc(C2=NOC(C)(c3nnc(-c4ccc(F)cc4)o3)C2)cc1 (stereo not given) | inconclusive: 85.4%
45 | CSc1ccccc1C(=O)OCC(=O)NC1CCS(=O)(=O)C1 (stereo not given) | inactive: 104%
46 | O=S(=O)(Cc1ccccc1)Nc1ccc(S(=O)(=O)NCC2CCCO2)cc1 (stereo not given) | inactive: 99.5%

Row | Structure (SMILES) | binding response (% of control)
47 | CCCCc1nnc(NC(=O)CC(=O)Nc2ccccc2C(=O)O)s1 | inactive: 93.5%
48 | CCOc1ccc(NC(=O)C(CC(=O)O)Cc2ccccc2)cc1 (stereo not given) | inconclusive: 98.3%
49 | COc1ccc(/C=N/NC(=O)c2cccnc2)cc1CN1CCc2ccccc2C1 | inconclusive: 98.4%
50 | Nc1ccccc1Sc1ccc(C(F)(F)F)cc1[N+](=O)[O-] | inconclusive: 94.1%
51 | C=CCOc1cccc(C(=O)N2CCCC(CCC(=O)NCc3ccccc3F)C2)c1 (stereo not given) | inconclusive: 106%
52 | O=C(COC(=O)c1cc2ccccc2oc1=O)Nc1ccc(F)cc1F | inconclusive: 225%
53 | O=C(OCc1nnc(-c2ccccc2)o1)c1cc(Cl)ccc1[N+](=O)[O-] | inconclusive: 95.1%
54 | CCCN(CC1CC1)C(=O)CSc1ncnc2sccc12 | inconclusive: 99%
55 | CSc1ccc(/C=N/N2CCN(Cc3ccc(C)cc3C)CC2)cc1 | inconclusive: 103%
56 | O=C(N/N=C/c1cc([N+](=O)[O-])cc(Br)c1O)C12CC3CCC(CC(C3)C1)C2 | inconclusive: 25.9%
57 | Cc1cccc(OCC(=O)NN2C(=O)C3C4C=CC(O4)C3C2=O)c1 (stereo not given) | inconclusive: 112%
58 | CN(C)c1ccc(P(=O)(OC2CCCCC2)C(O)c2ccccn2)cc1 (stereo not given) | inconclusive: 74.7%
59 | Cc1cccc(NC(=O)c2cccc(C(F)(F)F)c2)c1 | inconclusive: 104%
60 | COc1cccc(/C=N/n2c(SC)nnc2-c2ccccc2)c1O | inactive: 99.3%
61 | COc1cc(C(O)P(=O)(OCC(C)C)c2ccc(N(C)C)cc2)cc(OC)c1OC (stereo not given) | inconclusive: 99.5%
62 | Cc1ccc(C2C(C(=O)c3cccs3)=C(O)C(=O)N2c2cccc(C)n2)cc1 (stereo not given) | inconclusive: 74%
63 | O=C(C1=NN[C@@H]2C(=O)N(Cc3ccccc3)C(=O)[C@H]12)c1ccc([N+](=O)[O-])cc1 | inconclusive: 140%
64 | NNC(=O)c1cncc(Br)c1 | inconclusive: 145%
65 | COc1ccc(S(=O)(=O)c2ccc(OCC3CO3)cc2)cc1 (stereo not given) | inconclusive: 148%
66 | O=S(=O)(c1cccc2cccc(Cl)c12)N1CCCC1 | inconclusive: 82.5%
67 | CCOc1ccc(CN(C)C(=O)c2cccnc2OCC)cc1OC | inconclusive: 111%
68 | CCN1CCN(CC(=O)Nc2cc(C(F)(F)F)ccc2OCCOC)CC1 | inconclusive: 94.4%
69 | O=C(Nc1ccc(-c2csc(Nc3cccc(C(F)(F)F)c3)n2)cc1)c1cccc(C(F)(F)F)c1 | inconclusive: 110%

Row | Structure (SMILES) | binding response (% of control)
70 | COC(=O)c1cc2c(ccn2-c2ccc(F)cc2)n1C(C)C | inactive: 111%
71 | COc1ccccc1-c1nnc(SC(C)C(=O)O)n1-c1ccccc1 (stereo not given) | inactive: 100%
72 | Cc1cc(=O)nc2c3ccccc3n(C(C)C(=O)Nc3cc(F)ccc3F)n12 (stereo not given) | inconclusive: 107%
73 | CN(C(=O)COC(=O)/C=C/c1cccc([N+](=O)[O-])c1)C1CCS(=O)(=O)C1 (stereo not given) | inconclusive: 60.7%
74 | N/C(=N\NS(=O)(=O)c1cc(C(F)(F)F)cc(C(F)(F)F)c1)c1ccccn1 | inconclusive: 116%
75 | O=C(/C=C/c1ccc(Br)o1)Nc1nnc(C2CC2)s1 | inconclusive: 233%
76 | CC(Oc1ccccc1)C(=O)N1CCN=C1SCc1ccccc1F (stereo not given) | inconclusive: 192%
77 | CCOCCCN1C(=O)CN(C2CCC(C)CC2)C(=O)C1c1ccc(C)cc1 (stereo not given) | inactive: 100%
78 | Cc1ccc2nc(-c3ccc(SCC(=O)Nc4ccc5c(c4)OCCO5)nc3)[nH]c2c1 | inactive: 103%
79 | COc1ccc(N2C(=O)Cc3c2nc(N)c(C#N)c3N)cc1 | inconclusive: 91.7%
80 | CNc1ncnc2sc(-c3ccccc3)cc12 | active: 11.2%
81 | O=S(=O)(Nc1ccncc1Cl)c1cccc(Cl)c1Cl | inconclusive: -248%
82 | Cc1cc(C(=O)NCC(=O)OCC(=O)NCCc2ccccc2)ccc1[N+](=O)[O-] | inactive: 96.6%
83 | Cc1nc2ccccc2nc1OCc1ccc([N+](=O)[O-])cc1 | inconclusive: 110%
84 | CC1=CC(=O)C(C(C)=Nc2ccccc2Cl)C(=O)O1 (stereo not given) | inconclusive: 130%
85 | COc1ccc(F)cc1S(=O)(=O)N1CCCCC1 | inconclusive: 117%
86 | NS(=O)(=O)c1cc(C(=O)OCC(=O)NC2CC2)ccc1Cl | inactive: 106%
87 | Cc1ccc(S(=O)(=O)CC(=O)c2cc(C)c(O)c(C)c2)cc1 | inconclusive: 93.9%
88 | CCOC(=O)C1=C(O)/C(=C/c2ccc(OCC(=O)O)c(OC)c2)SC1=Nc1ccc(OCC)cc1 | inactive: 100%
89 | CC(=O)C1=C(c2ccccc2)N(C(C)=O)n2c(C)nnc2S1 | inactive: 105%
90 | Cc1ccc(-c2c[n+](CC(=O)c3cccs3)c3n2CCC3)cc1 | inconclusive: 83.5%

3 compounds from above, sorted by formula weight, falling:
Row | Structure (SMILES) | binding response (% of control)
77 | CCOCCCN1C(=O)CN(C2CCC(C)CC2)C(=O)C1c1ccc(C)cc1 (stereo not given) | inactive: 100%
71 | COc1ccccc1-c1nnc(SC(C)C(=O)O)n1-c1ccccc1 (stereo not given) | inactive: 100%
89 | CC(=O)C1=C(c2ccccc2)N(C(C)=O)n2c(C)nnc2S1 | inactive: 105%

Reference: PubChem BioAssay AID1439 (NMMLSC, 2008)
